Measured values reported in PMC12859043.
No constants are given. Whether binding was seen depends on the method and setting. Binding seen in cells or lysates may run through a third protein. Some entries that bind do so weakly or less than the wild type. For some of these results: Where a sequence is shown, tags or fusion partners need not be part of it.

Sequences of proteins named here, by UniProt entry; tags and fusion partners are left off. A change or cut given only in a name is not applied to a line headed by its entry. Residues count along the entry.
UniProt Q68DV7, residues 24-783: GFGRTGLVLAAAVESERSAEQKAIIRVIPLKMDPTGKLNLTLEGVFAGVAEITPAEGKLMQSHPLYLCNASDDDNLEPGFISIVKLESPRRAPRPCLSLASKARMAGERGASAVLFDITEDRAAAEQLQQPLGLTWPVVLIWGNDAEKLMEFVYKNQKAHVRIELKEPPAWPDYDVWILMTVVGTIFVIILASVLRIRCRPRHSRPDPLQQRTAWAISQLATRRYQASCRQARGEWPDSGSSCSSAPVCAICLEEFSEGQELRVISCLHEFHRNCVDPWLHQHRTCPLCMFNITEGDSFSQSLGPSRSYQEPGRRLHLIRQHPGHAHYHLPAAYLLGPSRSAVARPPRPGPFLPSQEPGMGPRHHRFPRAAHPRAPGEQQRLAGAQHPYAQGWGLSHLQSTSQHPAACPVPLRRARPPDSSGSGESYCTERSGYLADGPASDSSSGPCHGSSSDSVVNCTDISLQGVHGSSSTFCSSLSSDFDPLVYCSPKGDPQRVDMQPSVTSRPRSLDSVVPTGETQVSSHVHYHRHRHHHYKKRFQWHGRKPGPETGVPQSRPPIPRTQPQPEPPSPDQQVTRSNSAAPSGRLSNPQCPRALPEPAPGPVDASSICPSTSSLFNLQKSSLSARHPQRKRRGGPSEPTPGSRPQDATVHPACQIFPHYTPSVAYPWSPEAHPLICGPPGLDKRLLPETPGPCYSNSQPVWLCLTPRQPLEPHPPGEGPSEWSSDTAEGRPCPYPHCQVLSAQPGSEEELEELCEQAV
UniProt P49674: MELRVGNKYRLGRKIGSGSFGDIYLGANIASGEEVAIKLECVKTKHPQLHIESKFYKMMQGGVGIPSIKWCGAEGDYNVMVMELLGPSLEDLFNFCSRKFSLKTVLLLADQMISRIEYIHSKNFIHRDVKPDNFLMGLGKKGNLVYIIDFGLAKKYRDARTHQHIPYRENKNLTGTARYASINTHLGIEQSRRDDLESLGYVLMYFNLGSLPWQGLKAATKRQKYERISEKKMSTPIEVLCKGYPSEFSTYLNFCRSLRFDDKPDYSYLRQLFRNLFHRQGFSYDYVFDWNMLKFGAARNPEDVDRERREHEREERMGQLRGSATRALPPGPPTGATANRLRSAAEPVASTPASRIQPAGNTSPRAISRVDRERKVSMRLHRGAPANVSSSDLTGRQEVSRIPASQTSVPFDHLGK

Experiments:
[1] = molecular target: T1, GFP-tagged PRICKLE3 C-terminal fragment (aa 372–615) (human) (UniProt O43900); assay: co-IP; anti-GFP IP of GFP-tagged PRICKLE3 deletion constructs; Western blot for CK1ε
T1 sequence: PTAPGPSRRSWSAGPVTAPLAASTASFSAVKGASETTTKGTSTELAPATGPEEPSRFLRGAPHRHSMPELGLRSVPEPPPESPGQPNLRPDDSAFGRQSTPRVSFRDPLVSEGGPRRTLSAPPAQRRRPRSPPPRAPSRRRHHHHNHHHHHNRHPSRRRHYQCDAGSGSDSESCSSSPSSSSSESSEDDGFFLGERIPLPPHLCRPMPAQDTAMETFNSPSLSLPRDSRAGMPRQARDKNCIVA

[2] = molecular target: T2, GFP-tagged PRICKLE3 N-terminal fragment (aa 1–375) (human) (UniProt O43900); assay: as above
T2 sequence: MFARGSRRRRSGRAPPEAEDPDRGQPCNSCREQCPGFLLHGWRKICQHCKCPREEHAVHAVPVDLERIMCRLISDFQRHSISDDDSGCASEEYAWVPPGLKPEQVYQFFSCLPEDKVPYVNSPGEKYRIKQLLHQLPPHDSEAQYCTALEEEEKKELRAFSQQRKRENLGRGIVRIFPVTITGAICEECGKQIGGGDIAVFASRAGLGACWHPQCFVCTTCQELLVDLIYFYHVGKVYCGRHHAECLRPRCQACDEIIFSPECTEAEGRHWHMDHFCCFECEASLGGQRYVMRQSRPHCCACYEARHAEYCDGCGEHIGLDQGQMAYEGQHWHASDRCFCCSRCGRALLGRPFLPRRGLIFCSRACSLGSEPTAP

[3] = molecular target: T3, HA-tagged PRICKLE3 (human) (UniProt O43900); assay: co-IP; anti-HA IP (IgG control) from HEK T-REx 293 PRICKLE3 or PRICKLE1 TetON cells induced overnight with doxycycline; Western blot for endogenous proteins
T3 sequence: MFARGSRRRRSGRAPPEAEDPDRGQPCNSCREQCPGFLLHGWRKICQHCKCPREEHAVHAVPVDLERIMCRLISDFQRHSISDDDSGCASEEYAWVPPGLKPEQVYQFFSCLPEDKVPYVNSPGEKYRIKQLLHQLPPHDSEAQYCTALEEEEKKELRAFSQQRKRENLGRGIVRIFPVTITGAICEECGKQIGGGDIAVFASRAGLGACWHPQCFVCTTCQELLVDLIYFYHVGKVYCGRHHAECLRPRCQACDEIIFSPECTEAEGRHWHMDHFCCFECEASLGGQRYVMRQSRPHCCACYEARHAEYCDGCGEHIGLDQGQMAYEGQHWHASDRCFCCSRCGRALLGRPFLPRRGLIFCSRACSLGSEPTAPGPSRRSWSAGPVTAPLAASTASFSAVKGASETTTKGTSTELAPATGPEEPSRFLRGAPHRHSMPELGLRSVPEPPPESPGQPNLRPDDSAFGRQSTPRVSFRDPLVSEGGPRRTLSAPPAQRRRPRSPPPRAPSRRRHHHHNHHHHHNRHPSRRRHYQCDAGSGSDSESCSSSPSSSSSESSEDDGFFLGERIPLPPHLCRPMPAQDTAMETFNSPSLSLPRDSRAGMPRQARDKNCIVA

RNF43-FLAG (human) = RNF43-FLAG (human) (UniProt Q68DV7); assay: co-IP; HEK T-REx 293 PRICKLE3 TetON cells transfected with RNF43-FLAG and EGFP-VANGL2, with or without overnight doxycycline induction of HA-PRICKLE3; Western blot, endogenous CK1ε quantified by densitometry

Substance | binding [1] | binding [2] | binding [3] | binding (RNF43-FLAG (human))
CK1ε (co-IP with the GFP-PRICKLE3 deletion constructs, Fig. 5d) (from UniProt P49674 1-416) (enzyme) | binds | binds |  | 
Casein kinase 1ε (endogenous) (from UniProt P49674 1-416) (enzyme) |  |  | binds | binds
